From patent publication EP4755920A1
Positions count from the first letter of the chain named. No constants are given. Whether binding was seen depends on the method and setting. Some entries that bind do so weakly or less than the wild type.

Protein sequences, listed by entry. Tags and fused reporters are not part of them. Residues count along the entry.
UniProt P24394, residues 26-825: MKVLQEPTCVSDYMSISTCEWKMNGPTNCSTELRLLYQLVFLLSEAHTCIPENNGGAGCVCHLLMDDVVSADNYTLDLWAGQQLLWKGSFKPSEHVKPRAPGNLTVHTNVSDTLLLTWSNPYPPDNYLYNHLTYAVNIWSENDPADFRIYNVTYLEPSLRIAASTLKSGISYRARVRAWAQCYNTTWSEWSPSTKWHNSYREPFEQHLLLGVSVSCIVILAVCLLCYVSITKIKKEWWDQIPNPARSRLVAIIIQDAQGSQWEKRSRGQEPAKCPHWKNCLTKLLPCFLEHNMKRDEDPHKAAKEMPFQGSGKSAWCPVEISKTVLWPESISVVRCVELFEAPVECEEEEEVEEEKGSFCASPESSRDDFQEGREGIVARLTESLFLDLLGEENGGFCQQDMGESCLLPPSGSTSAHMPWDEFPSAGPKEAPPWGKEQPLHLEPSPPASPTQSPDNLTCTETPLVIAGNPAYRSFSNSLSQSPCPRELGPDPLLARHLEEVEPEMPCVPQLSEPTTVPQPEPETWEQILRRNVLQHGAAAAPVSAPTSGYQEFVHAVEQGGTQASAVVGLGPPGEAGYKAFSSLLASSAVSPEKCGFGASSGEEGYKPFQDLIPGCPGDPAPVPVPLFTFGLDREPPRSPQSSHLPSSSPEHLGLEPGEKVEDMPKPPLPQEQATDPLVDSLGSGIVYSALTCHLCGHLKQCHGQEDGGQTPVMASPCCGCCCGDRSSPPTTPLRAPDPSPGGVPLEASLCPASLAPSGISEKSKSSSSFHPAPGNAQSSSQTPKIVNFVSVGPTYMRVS

B1: IL4R-CHI-04 (antibody, V domains shown)
VH: DVQLQESGPGLVKPSQSLSLTCTVTGYSITSDYAWNWIRQFPGNKLEWMGYISYSGSSSYNPSLKSRISITRDTSKNQFFLQLNSVTTDDTATYYCAGGGLRRRGLFDYWGQGTTLTVSS
VL: QIVLSQSPAILSASPGEKVTMTCRATSSVTYMHWYQQKPGSSPKPWIYATSNLASGVPARFSGSGSGTSYSLTISRVEAEDTATYYCQQWSSIPLTFGAGTKLELK
B2: IL4R-CHI-07 (antibody, V domains shown)
VH: QVQLQQSGAELVKPGASVKLSCKASGYTFTEYTIHWVKQRSGQGLEWIGWFYPGRGSIKYNEKFKDKATLTADKSSSTVYMELSRLTSEDSAVYFCTRHEYRGSNYAMDYWGQGTSVTVSS
VL: DVLMTQTPLSLPVSLGDQASISCRSSQSIVHSSGNTYLQWYLQKPGQSPKLLIYKVSNRFSGVPDRFSGSGSGTDFTLKISRVEAEDLGVYYCFQGSHVPPTFGGGTKLEIK
B3: IL4R-CHI-13 (antibody, V domains shown)
VH: EVQLQQSGPVLVKPGASVKMSCKASGYTFTDYYMNWVKQRHGKSLDWIGTINPYNGGTGYNQKFKGKATLTVDKSSSTAYMELNSLTSEDSAVYFCARSLLRRRGAMDYWGQGTSVTVSS
VL: DIVLTQSPASLVVSLGQRATISCRASKSVSTSGYGYIHWYRQKPGQPPKLLIYLVSNLESGVPARFSGSGSGTDFTLNIHPVEEEDAATYYCQHIRELYTFGGGTKLEIK
B4: IL4R-CHI-14 (antibody, V domains shown)
VH: EVMLVESGGGLVKPGGSLKLSCAASGFTFSSYAMSWVRQTPEKRLEWVAIISGGGDSTYYPDSVKGRFTISRDNAKNTLYLQMSSLRSEDTALYFCARLHYWYFDFWGTGTTVTVSS
VL: DIQMTQSSSSFSVSLGDRVTITCKASEDLYNRLAWYQQKPGNAPRLLISGATSLETGVPSRFSGSGSGRDYTLIITSLQTEDVATYYCQQYWRNPYTFGGGTKLEIK
B5: IL4R-CHI-17 (antibody, V domains shown)
VH: QAYLQQSGAELVRPGASVKMSCKASGYTFTSYNMHWAKQTPRQGLEWIGSIYPGNGDTSYNQKFKGKATLTVDKSSSTAYMQLSSLTSEDSAVYFCARGGRLRRGDWFAYWGQGTLVTVSA
VL: DIQMTQSPASLSASVGETVTITCRASENIYSYLIWYQQKQGKSPQLLVYDAKTLAEGVPSRFSGSGSGSQFSLKINSLQPEDFGTYYCQHHYGTPLTFGGGTKLELK
B6: IL4R-CHI-18 (antibody, V domains shown)
VH: QVQLKQSGPGLVQPSQSLSVTCTVSGFSLTNYGVHWVRQSPGKGLEWLGVIWSGGSTDYNAAFKSRLSISKDNSKSQVFFKMNSLQADDTAIYYCARNKGTRPVFDYWGQGTTLTVSS
VL: DIQMTQSPASLSASVGETVTITCRASENIYSYLAWYQQKQGKSPQLLVYNAKTLAEGVPSRFSGSGSGTQFSLKINSLQPEDFGSYYCQHYVSPLTFGAGTKLEVK
B7: IL4R-hum-18H5L1 (antibody, V domains shown)
VH: EVTLKESGPVLVKPTETLTLTCTVSGFSLTNYGVHWIRQPPGKALEWLGVIWSGGSTDYNAAFKSRLTISKDNSKSQVVLTMTNMDPVDTATYYCARNKGTRPVFDYWGQGTTVTVSS
VL: DIQMTQSPSSLSASVGDRVTITCRASENIYSYLAWYQQKPGKAPKLLIYNAKTLAEGVPSRFSGSGSGTDFTLTISSLQPEDFATYYCQHYVSPLTFGQGTKLEIK
B8: IL4R-hum-13H1aL2a (antibody, V domains shown)
VH: EVQLVQSGAEVKKPGASVKVSCKASGYTFTDYYMNWVRQAPGQRLEWMGTINPYNAGTGYNQKFKGRVTITVDKSASTAYMELSSLRSEDTAVYYCARSLLRRRGAMDYWGQGTTVTVSS
VL: DIVLTQSPDSLAVSLGERATINCRASKSVSTSGYGYIHWYQQKPGQPPKLLIYLVDNLESGVPDRFSGSGSGTDFTLTISSLQAEDVATYYCQHIRELYTFGGGTKVEIK
B9: IL4R-hum-14L2H2 (antibody, V domains shown)
VH: B4 VH with M3Q, K13Q, K19R, T40A, T78S, S84N, S88A, L93V, F95Y, T109Q
VL: DIQMTQSPSSLSASVGDRVTITCKASEDLYNRLAWYQQKPGKAPKLLISGATSLETGVPSRFSGSGSGRDFTLTISSLQPEDFATYYCQQYWRNPYTFGGGTKVEIK
B10: IL4R-hum-04H7L1 (antibody, V domains shown)
VH: EVQLQESGPGLVKPSETLSLTCTVSGYSISSDYAWNWIRQPPGKGLEWIGYISYSGSSSYNPSLKSRVTISVDTSKNQFSLKLSSVTAADTAVYYCARGGLRRRGLFDYWGQGTTVTVSS
VL: DIQLTQSPSFLSASVGDRVTITCRATSSVTYMHWYQQKPGKAPKPWIYATSNLASGVPSRFSGSGSGTEFTLTISSLQPEDFATYYCQQWSSIPLTFGQGTKLEIK

What follows are binders tested against Full-length hIL4Rα on human IL4Rα-293T cells (human) (UniProt P24394) (assay: flow cytometry on human IL4Rα-293T cells).

binding, binds:
B1, B2, B3, B4, B5, B6

Each binder was assayed against cynoIL4Rα-ECD(26-232)-His (cynomolgus monkey) (assay: ELISA, biotinylated antigen on streptavidin plate).

binding, binds:
B1, B2, B3, B4, B5, B6, B7, B8, B9, B10
